Reference: PubChem BioAssay AID1259259 (Sanger Institute, 2017)
The deposit covers 794 reagents; this is an unselected part. 9 of all reagents (1.1%) were called active. 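Calls rest on knock-down alone, not drug synergy; viability values seem capped at 1.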 A number with no mark means an inactive call. Not stated in the record: the amount of reagent, the time to read-out.

Screen: 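Kinase silencing that lowers colorectal cancer cell viability alone or with drugs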 (primary screen)
System: SW1463 human colorectal cancer cells
Knock-down reagent: siRNA pool against human genes
Conditions: DMSO vehicle, or one anchor drug: BYL719 at 1 µM, cetuximab at 5 µg/ml, or trametinib at 10 nM
Read-out: 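Viability as fraction of control pool 2 (non-targeting), replicate mean; knock-down robust z-score without any drug; synergy score averaged for each anchor drug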
Scale: robust z-score, knock-down alone: higher = more viable cells after knock-down; viability, knock-down alone: higher = more viable cells; synergy score with BYL719 and synergy score with cetuximab and synergy score with trametinib: higher = stronger synergy (synthetic lethal) with drug
Rule for the call: 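a robust z-score under -3 for knock-down with no drug marks the gene as essential, meaning viability loss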
Meaning of the calls: active = essential: viability loss from knock-down alone; inactive = no change from knock-down alone

Gene,"robust z-score, knock-down alone","viability, knock-down alone (fraction of control)",synergy score with BYL719,synergy score with cetuximab,synergy score with trametinib
PKMYT1,-0.112,0.92,0.0915,0.108,0.0386
ARID1A,-1.05,0.86,0.000166,0.0604,0.0922
PAK1,-0.882,0.871,0.0863,0.184,0.271
TNNI3K,0.64,0.969,-0.0312,0.19,-0.0629
MAPKAPK5,0.45,0.957,-0.0134,0.0314,0.118
MAP2K1,-0.0274,0.926,0.021,0.187,-0.00533
MYLK2,-2.01,0.799,0.06,0.15,0.163
BRD3,1.13,1,0.0637,0.0218,0.0709
DGKK,0.862,0.983,-0.017,0.0338,-0.0115
ACVR1C,-0.264,0.911,0.0143,0.0869,0.0582
MED12,0.613,0.967,-0.033,0.0194,0.0792
PRKCE,1.13,1,0.0544,0.136,0.287
TBX3,0.756,0.976,-0.0238,0.129,-0.0253
GK,0.837,0.981,0.0438,0.207,0.054
PGK1,0.425,0.955,-0.0173,-0.0162,0.00601
MAPK7,1.13,1,0.0836,0.144,-0.0326
CDADC1,-0.459,0.898,0.124,0.0248,0.0565
SGK3,-0.335,0.906,0.0255,-0.0219,0.0405
MAP3K21,-0.17,0.917,0.00859,0.105,0.143
IRAK3,-0.634,0.887,0.0182,0.338,0.337

2 of these entries in another layout:
MAPKAPK5
- robust z-score, knock-down alone: 0.45
- viability, knock-down alone (fraction of control): 0.957
- synergy score with BYL719: -0.0134
- synergy score with cetuximab: 0.0314
- synergy score with trametinib: 0.118

MAP2K1
- robust z-score, knock-down alone: -0.0274
- viability, knock-down alone (fraction of control): 0.926
- synergy score with BYL719: 0.021
- synergy score with cetuximab: 0.187
- synergy score with trametinib: -0.00533
